The text below walks through data of PMC11927589.

Protein sequences, listed by entry. Tags and fused reporters are not part of them. Residues count along the entry.
UniProt Q8BWG9: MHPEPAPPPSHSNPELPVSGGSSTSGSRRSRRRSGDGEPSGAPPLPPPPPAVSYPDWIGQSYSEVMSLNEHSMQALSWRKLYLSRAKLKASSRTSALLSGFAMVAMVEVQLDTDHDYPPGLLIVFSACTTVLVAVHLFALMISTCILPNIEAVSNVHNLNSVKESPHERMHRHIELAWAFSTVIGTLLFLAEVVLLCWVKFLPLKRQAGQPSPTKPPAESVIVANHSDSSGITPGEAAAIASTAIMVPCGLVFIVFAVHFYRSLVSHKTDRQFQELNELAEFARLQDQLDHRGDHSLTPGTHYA
UniProt P70302, residues 23-685: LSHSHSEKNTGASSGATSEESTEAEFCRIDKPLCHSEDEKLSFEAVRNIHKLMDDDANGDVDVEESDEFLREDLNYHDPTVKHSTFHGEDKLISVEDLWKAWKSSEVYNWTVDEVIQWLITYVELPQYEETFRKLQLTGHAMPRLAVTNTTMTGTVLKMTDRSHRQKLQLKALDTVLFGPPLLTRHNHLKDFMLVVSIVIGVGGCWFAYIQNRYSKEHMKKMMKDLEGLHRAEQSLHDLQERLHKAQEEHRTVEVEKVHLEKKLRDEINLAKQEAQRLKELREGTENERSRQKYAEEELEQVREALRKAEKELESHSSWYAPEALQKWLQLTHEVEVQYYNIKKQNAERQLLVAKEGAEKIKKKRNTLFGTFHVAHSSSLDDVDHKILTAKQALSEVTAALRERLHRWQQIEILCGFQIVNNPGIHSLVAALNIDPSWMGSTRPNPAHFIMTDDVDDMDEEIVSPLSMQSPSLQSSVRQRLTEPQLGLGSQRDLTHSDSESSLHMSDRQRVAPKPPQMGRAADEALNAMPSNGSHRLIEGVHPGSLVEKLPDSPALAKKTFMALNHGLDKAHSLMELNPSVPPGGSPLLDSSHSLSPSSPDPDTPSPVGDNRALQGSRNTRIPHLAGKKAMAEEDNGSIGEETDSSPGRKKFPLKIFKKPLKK

No constants are given. Whether binding was seen depends on the method and setting. Binding seen in cells or lysates may run through a third protein. Some results given as binding are weak or reduced against the parent protein; the word gives no strength.

The target of this test is Orai1 (mouse (endogenous in mouse neutrophils)) (UniProt Q8BWG9). Kind of test: proximity ligation; Duolink In Situ Red Starter Kit Mouse/Rabbit; endogenous proteins in purified mouse neutrophils adhered to PLL, fixed, permeabilized, primary antibody pairs overnight; WT compared with Stim1/2-deficient neutrophils.

Take “Stim1 (stromal interaction molecule 1) (from UniProt P70302 23-685)”: the binding result is “binds”.
